# Out of some 330,000 compounds screened, about 7,700 (2.3%) were called active. Inconclusive means that the source gave no clear call. Such entries were picked first, then a sample of the others. Calls come from the whole dose curve; as a rule, active = well fitted inhibition curve with a large enough effect; inconclusive = small, poorly fitted or top-dose-only effect, or effect the other way; inactive = flat fitted curve, though single readings scatter. A potency beside an inconclusive call is a rough fit, not a confirmed value.
# Experiment: qHTS screen for small molecules that inhibit ELG1-dependent DNA repair in human embryonic kidney (HEK293T) cells expressing luciferase-tagged ELG1; note: nearly all actives have a fitted effect of over 55% in size
# Conditions: HEK293T ELG1-luciferase reporter, luminescence, 16 h, DNA damage induced by 5-fluorouridine; series mostly up to 46.1 µM
# Method in brief: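 Cells (2,000 per well) received 5-fluorouridine plus test compound or DMSO and were incubated 16 hr at 37 °C, 5% CO2. Luciferase activity was read by luminescence 30 min after ONE-Glo addition; signal suppression marked inhibition of damage-induced ELG1 function.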
# Potency is the fitted concentration of half-maximal effect.
row,SMILES,Potency
1,COc1ccc(OC)c(CCNC(=O)C(C)n2nc(C)c3c(C)n(-c4ccccc4)nc3c2=O)c1 (stereo not drawn),"inconclusive: 20.6 µM [inhibitor, partial curve, poor fit]"
2,CCOC(=O)C(C)Sc1nnc(NC(=O)c2ccc3c(c2)OCO3)s1 (stereo not drawn),inactive
3,O=C(Cc1cccs1)N/N=C/c1ccco1,"inconclusive: 16.4 µM [activator, single point]"
4,Cn1c(=O)[nH]c(=O)c2c1nc(NCc1ccccc1)n2Cc1ccc(F)cc1,inactive
5,CC(C)c1c(C(=O)N/N=C/c2ccc(OCc3ccc(F)cc3)cc2)nnn1-c1nonc1N,"inconclusive: 16.4 µM [activator, single point]"
6,CCc1ccc(N2C(=O)C3C4C=CC(CC4)C3C2=O)cc1 (stereo not drawn),"inconclusive: 23.1 µM [activator, single point]"
7,COc1ccccc1C(=O)Nc1sc(C(=O)N2CCCC2)c(C)c1C#N,"inconclusive: 2.06 µM [inhibitor, full curve]"
8,CCc1ccccc1N(CC)C(=O)CCc1nc(-c2ccc(C)cc2)no1,inactive
9,C=CCN1C(=NC(=O)CCCC(=O)O)SC2CS(=O)(=O)CC21 (stereo not drawn),inactive
10,O=C(CC1CCCCC1)N1CCCC(c2nc(-c3ccc(S(=O)(=O)N4CCCC4)cc3)no2)C1 (stereo not drawn),"inconclusive: 16.4 µM [inhibitor, partial curve]"
11,Cc1ccc(C(=O)C2CCN(CC(=O)NC3CCCCC3)CC2)cc1,"inconclusive: 25.9 µM [inhibitor, partial curve, poor fit]"
12,CC(=O)NC(c1cc(Cl)c2cccnc2c1O)C1CC1 (stereo not drawn),"inconclusive: 11.6 µM [inhibitor, partial curve]"
13,COc1cc(/C=C/c2[nH]c(=O)[nH]c(=O)c2[N+](=O)[O-])ccc1OCCC(C)C,inactive
14,COc1ccc(O)c(C(=O)c2cnn(-c3ccccc3)c2)c1,"inconclusive: 20.6 µM [activator, partial curve]"
15,CSc1nc2ccccc2cc1/C=C(\C#N)c1cccc(Cl)c1,inactive
16,CCN(CC(=O)Nc1cc(Cl)ccc1C)c1ncnc2sc(C)c(C)c12,"inconclusive: 18.4 µM [inhibitor, single point]"
17,O=C(NCc1ccc(Cl)cc1)c1ccc(NC(=O)C2CCCO2)cc1 (stereo not drawn),inactive
18,NC(=O)c1ccc(NC(=O)c2cnc3ccccc3n2)cc1,"inconclusive: 16.4 µM [activator, partial curve]"
19,O=C(Nc1ccccc1)NC1(C(=O)NCc2cccs2)CCCCC1,inactive
20,Cc1ccc(Cl)c2sc(NC(=O)C3CC3)nc12,inactive
21,Cc1ccc2cc(C#N)c(NCc3ccco3)nc2c1,inactive
22,C=CCN=C1NN=C(c2cc(C)n(CC=C)c2C)CS1,"inconclusive: 0.517 µM [activator, partial curve, poor fit]"
23,Cc1cccc(Nc2c([N+](=O)[O-])cc(C(=O)N3CC(=O)Nc4ccccc43)cc2[N+](=O)[O-])c1,"inconclusive: 20.6 µM [inhibitor, single point]"

row,SMILES,Potency
1,O=C(Nc1ccccc1Br)c1ccc2nccnc2c1,"inconclusive: 11.6 µM [activator, partial curve]"
2,Cc1ccc2nc(Nc3ccccc3)c(/C=N/O)c(=O)n2c1,"inconclusive: 29.1 µM [inhibitor, single point]"
3,Nc1nccc(-c2cc(-c3ccc(Cl)cc3Cl)no2)n1,"inconclusive: 0.82 µM [activator, full curve]"
4,COc1ccc2c(c1)c1nnc(SCC(=O)N3C(C)CCCC3C)nc1n2C (stereo not drawn),"inconclusive: 18.4 µM [inhibitor, partial curve, poor fit]"
5,CCOC(=O)c1c(CN2CCCCC2)n(C)c2cc(Br)c(O)c(CN(C)C)c12,inactive
6,O=C(O)c1ccc(NS(=O)(=O)c2cccc(S(=O)(=O)c3ccc(Cl)c(Cl)c3)c2)cc1,"inconclusive: 18.3 µM [activator, partial curve, poor fit]"
7,O=c1c(/C=N\NS(=O)(=O)c2ccccc2)coc2ccc(Cl)cc12,active: 14.6 µM
8,C[C@@H]1CN([C@@H](C)CO)C(=O)c2cccc(NS(C)(=O)=O)c2O[C@H]1CN(C)CC1CCCCC1,"inconclusive: 16.4 µM [activator, partial curve, poor fit]"
9,c1ccn2c(SCc3cn4ccsc4n3)nnc2c1,"inconclusive: 18.4 µM [activator, partial curve]"
10,Cc1cccnc1NC(=S)Nc1ccc(Cl)c(Cl)c1,"inconclusive: 29.1 µM [activator, single point]"
11,COc1ccc2cc(S(=O)(=O)N3CCCCC3)ccc2c1S(=O)(=O)N1CCCCC1,"inconclusive: 20.6 µM [inhibitor, partial curve]"
12,CCC(C)[C@H](NC(=O)[C@@H]1Cc2ccccc2CN1)C(=O)Nc1ccc2c(c1)OCO2 (stereo partly drawn),"inconclusive: 13 µM [activator, partial curve]"
13,CC(NC(=O)CCCCCNC(=O)N1CCn2c1nc1ccccc12)c1ccccc1 (stereo not drawn),"inconclusive: 20.6 µM [inhibitor, single point]"
14,Cc1ccccc1NC(=O)CN1CCC(n2nnc3ccccc32)CC1,"inconclusive: 0.164 µM [inhibitor, full curve, poor fit]"
15,CCOc1ccc(C(=O)N2CCN(CC(=O)N3CCCC3)CC2)cc1OCC,"inconclusive: 16.4 µM [activator, single point]"
16,COc1cc(C(=O)NCCC(c2ccccc2)c2ccccc2)cc(OC)c1OC,"inconclusive: 20.6 µM [inhibitor, partial curve, poor fit]"
17,Cc1cc(=O)[nH]c2c1c(C)nn2C(C)(C)C,inactive
18,Cc1ccc(OCC(=O)c2cc(C)n(Cc3ccco3)c2C)c([N+](=O)[O-])n1,"inconclusive: 10.3 µM [activator, partial curve, poor fit]"
19,COc1ccccc1OCCNC(=O)c1cc(F)c(F)cc1Cl,"inconclusive: 16.4 µM [activator, single point]"
20,COc1ccc(N2CCN(c3ncnc4scc(-c5ccc(C)cc5)c34)CC2)cc1,"inconclusive: 20.6 µM [inhibitor, single point]"
21,C=CCn1c(COc2ccc(Cl)cc2)nnc1SCC(=O)N/N=C/c1cccc(O)c1,inactive
22,Cn1c(=N)n(CC(=O)c2ccc(Cl)c(Cl)c2)c2ccccc21,"inconclusive: 0.146 µM [activator, full curve]"
23,O=C(CN(c1ccc(F)cc1)S(=O)(=O)c1ccccc1)NCc1ccco1,inactive

# No new results follow: two of the compounds above.
row,SMILES,Potency
5,CCOC(=O)c1c(CN2CCCCC2)n(C)c2cc(Br)c(O)c(CN(C)C)c12,inactive
6,O=C(O)c1ccc(NS(=O)(=O)c2cccc(S(=O)(=O)c3ccc(Cl)c(Cl)c3)c2)cc1,"inconclusive: 18.3 µM [activator, partial curve, poor fit]"

# (next part)

row,SMILES,Potency
1,Cc1cc(NC(=O)c2ccccc2F)on1,"inconclusive: 18.4 µM [activator, partial curve]"
2,NC(=O)c1ccsc1NC(=O)c1ccc2c(c1)CCCC2,"inconclusive: 0.92 µM [activator, full curve]"
3,CCC(Sc1nc2sc(C(=O)OC)c(C)c2c(=O)n1N)C(=O)NCC1CCCO1 (stereo not drawn),"inconclusive: 16.4 µM [inhibitor, single point]"
4,COc1ccccc1N1C(=O)S/C(=C\c2cc(C)n(C)c2C)C1=O,"inconclusive: 10.3 µM [activator, partial curve]"
5,CCOC(=O)c1ccccc1NC(=O)CSc1nccn1C,inactive
6,Cn1c(=O)cc(OCC(=O)N2CCN(c3cccc(C(F)(F)F)c3)CC2)c2ccccc21,"inconclusive: 7.31 µM [inhibitor, partial curve, poor fit]"
7,CCN(CC)c1ccc(C=Nc2ccccc2)c(O)c1,inactive
8,CC(=O)c1c(C)[nH]c(C(=O)Nc2cccc(S(=O)(=O)N3CCOCC3)c2)c1C,"inconclusive: 18.4 µM [activator, partial curve]"
9,Cc1cc2oc(C(=O)Nc3nonc3C)c(C)c2cc1Cl,"inconclusive: 14.6 µM [activator, partial curve]"
10,COc1ccc(CCNC(=O)c2cccc(S(=O)(=O)N3CCCCCC3)c2)cc1,"inconclusive: 23.1 µM [inhibitor, single point]"
11,[O-][n+]1c2ccccc2c2n1CCCN=C2c1ccc(Cl)cc1,"inconclusive: 3.55 µM [activator, single point]"
12,COc1ccc(C(c2c(C)[nH]n(-c3ccccc3)c2=O)c2c(C)[nH]n(-c3ccccc3)c2=O)cc1OC,"inconclusive: 18.4 µM [activator, single point]"
13,COC(=O)c1ccc(NC(=O)Nc2ccc3c(c2)OCO3)cc1,"inconclusive: 23.1 µM [activator, partial curve]"
14,O=C(Nc1nc2cc3c(cc2s1)OCCO3)c1ccco1,"inconclusive: 0.103 µM [activator, full curve, poor fit]"
15,O=C(NC(C(=O)N/N=C/c1cc([N+](=O)[O-])ccc1O)c1n[nH]c(=O)c2ccccc12)c1ccccc1 (stereo not drawn),"inconclusive: 29.1 µM [inhibitor, single point]"
16,CN(/N=C/c1cc(Br)cc(Br)c1O)c1ccccc1,inactive
17,Cc1ccc(C(=O)NCC(=O)OCc2cccc(Br)c2)cc1,inactive
18,Cc1nn(-c2ccccc2)c(C)c1/C=N/n1c(-c2ccccc2Br)n[nH]c1=S,"inconclusive: 6.51 µM [inhibitor, single point]"
19,S=C(c1ccc(-c2ccc(Cl)cc2)o1)N1CCCCC1,"inconclusive: 3.66 µM [activator, full curve]"
20,CC(C)OC(=O)CSc1ncnc2c1cnn2-c1ccccc1,inactive
21,Cc1ccc(NC(=O)O/N=C/c2c(C)nn(C(C)(C)C)c2C)cc1Cl,"inconclusive: 0.13 µM [activator, full curve, poor fit]"
22,Cc1cccc(C(=O)NCCC(=O)Nc2nc(C)c(Cc3ccc4c(c3)OCO4)s2)c1,"inconclusive: 18.4 µM [activator, single point]"

# Random excerpt: two compounds from above, in no set order.
row,SMILES,Potency
8,C[C@@H]1CN([C@@H](C)CO)C(=O)c2cccc(NS(C)(=O)=O)c2O[C@H]1CN(C)CC1CCCCC1,"inconclusive: 16.4 µM [activator, partial curve, poor fit]"
14,Cc1ccccc1NC(=O)CN1CCC(n2nnc3ccccc32)CC1,"inconclusive: 0.164 µM [inhibitor, full curve, poor fit]"
